Results are given in words; binding and its absence hold for the method and conditions named. Binding seen in cells or lysates may run through a third protein. A result given as binding can be weak or reduced; the word gives no strength. For part of these data: Tags and fused reporters may be left off the sequences shown.
What was measured:
Assay in all cases: pull-down; GST-importins immobilised on Glutathione Sepharose, incubated with E. coli lysate containing ∼4 µM eS26^FLAG (or its mutants, or GFP-eS26) in PBSKMT with competing E. coli lysates for 1 hr at 4°C; Coomassie Blue staining or Western; only the target purified
[1] = target: GST-tagged Kap95 (S. cerevisiae) (UniProt Q06142)
[2] = target: T1, GST-Pse1 (S. cerevisiae) (UniProt P32337)
T1 sequence: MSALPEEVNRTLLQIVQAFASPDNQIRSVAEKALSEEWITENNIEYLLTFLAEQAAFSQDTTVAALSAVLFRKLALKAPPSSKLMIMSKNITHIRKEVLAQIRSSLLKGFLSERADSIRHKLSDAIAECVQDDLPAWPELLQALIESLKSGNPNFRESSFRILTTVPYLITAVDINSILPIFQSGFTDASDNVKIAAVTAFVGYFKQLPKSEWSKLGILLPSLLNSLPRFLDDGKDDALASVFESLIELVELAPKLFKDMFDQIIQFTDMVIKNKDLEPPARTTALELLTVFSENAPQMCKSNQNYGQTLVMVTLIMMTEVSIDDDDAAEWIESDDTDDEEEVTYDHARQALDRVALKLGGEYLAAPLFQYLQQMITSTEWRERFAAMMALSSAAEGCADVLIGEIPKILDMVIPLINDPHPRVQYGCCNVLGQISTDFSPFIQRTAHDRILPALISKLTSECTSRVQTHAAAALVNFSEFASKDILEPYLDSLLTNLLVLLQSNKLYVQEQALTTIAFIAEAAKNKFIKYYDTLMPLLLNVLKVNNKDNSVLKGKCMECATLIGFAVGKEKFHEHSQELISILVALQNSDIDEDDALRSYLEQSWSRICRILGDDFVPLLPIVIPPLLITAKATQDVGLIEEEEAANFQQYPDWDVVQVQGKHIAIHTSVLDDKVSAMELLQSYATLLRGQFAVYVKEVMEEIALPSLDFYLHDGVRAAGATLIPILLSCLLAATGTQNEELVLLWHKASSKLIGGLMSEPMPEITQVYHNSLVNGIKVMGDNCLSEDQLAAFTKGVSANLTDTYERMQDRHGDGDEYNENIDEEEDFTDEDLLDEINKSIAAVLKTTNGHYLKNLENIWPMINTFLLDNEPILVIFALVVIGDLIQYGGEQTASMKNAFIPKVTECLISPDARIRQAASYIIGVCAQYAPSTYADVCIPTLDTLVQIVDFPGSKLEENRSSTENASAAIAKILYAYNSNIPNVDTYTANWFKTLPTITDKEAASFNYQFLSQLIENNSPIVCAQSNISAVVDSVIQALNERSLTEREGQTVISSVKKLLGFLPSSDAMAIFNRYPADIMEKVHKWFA

Protein sequences, listed by entry. Tags and fused reporters are not part of them. Lines headed by an entry give the natural chain unless they say otherwise; changes in a name come on top.
UniProt Q06142: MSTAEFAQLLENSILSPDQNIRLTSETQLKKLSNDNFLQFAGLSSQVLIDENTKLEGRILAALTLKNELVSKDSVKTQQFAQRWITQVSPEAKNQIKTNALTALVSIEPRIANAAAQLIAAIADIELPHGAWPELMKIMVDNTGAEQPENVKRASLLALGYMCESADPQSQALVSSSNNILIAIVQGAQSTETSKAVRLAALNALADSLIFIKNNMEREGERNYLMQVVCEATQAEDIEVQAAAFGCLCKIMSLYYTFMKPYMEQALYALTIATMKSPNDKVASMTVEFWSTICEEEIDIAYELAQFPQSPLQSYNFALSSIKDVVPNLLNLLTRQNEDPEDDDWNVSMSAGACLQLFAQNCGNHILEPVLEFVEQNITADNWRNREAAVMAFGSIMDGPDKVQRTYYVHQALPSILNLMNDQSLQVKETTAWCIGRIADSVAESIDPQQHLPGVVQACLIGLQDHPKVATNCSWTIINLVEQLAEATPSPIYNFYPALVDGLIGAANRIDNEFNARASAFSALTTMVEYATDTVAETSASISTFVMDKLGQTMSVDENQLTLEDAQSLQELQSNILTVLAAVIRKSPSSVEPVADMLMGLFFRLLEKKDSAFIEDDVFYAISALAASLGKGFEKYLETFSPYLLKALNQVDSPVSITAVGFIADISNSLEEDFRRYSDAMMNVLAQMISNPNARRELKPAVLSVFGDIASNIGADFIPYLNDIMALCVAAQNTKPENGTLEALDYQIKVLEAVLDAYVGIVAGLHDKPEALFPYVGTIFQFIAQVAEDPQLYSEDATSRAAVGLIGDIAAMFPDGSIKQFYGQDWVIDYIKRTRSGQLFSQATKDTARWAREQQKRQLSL
UniProt P39938: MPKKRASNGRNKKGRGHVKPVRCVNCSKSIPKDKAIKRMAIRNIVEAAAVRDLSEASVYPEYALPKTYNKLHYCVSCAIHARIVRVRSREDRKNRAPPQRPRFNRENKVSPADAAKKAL

[3] = target: T2, GST-Kap123 (S. cerevisiae) (UniProt P40069)
T2 sequence: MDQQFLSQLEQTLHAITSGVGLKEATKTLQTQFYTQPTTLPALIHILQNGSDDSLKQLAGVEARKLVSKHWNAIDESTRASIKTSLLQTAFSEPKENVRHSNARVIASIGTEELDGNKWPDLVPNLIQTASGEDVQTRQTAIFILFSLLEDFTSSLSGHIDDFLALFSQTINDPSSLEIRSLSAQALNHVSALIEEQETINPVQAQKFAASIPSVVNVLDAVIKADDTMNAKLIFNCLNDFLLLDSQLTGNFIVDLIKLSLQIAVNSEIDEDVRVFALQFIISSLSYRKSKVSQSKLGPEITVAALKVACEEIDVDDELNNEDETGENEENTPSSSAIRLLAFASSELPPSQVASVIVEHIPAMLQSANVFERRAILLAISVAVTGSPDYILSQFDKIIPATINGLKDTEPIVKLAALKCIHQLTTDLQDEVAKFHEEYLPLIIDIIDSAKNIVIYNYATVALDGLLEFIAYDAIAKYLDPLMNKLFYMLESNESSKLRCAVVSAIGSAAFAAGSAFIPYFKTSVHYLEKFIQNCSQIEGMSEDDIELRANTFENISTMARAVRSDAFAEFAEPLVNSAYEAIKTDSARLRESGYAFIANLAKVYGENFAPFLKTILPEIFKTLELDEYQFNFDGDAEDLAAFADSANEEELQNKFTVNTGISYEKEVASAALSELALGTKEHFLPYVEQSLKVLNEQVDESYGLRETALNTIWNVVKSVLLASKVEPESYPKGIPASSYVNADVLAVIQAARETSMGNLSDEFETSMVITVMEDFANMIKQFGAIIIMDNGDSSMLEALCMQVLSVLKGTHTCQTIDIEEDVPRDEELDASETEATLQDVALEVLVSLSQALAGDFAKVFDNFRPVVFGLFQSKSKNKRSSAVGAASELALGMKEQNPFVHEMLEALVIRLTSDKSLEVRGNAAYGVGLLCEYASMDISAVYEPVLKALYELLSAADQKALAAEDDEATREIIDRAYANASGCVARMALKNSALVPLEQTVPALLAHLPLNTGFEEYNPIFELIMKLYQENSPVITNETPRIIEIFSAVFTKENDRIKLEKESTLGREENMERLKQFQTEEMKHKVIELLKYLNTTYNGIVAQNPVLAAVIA

eS26^FLAG (from UniProt P39938)
binding [1]: binds weakly
binding [2]: binds
binding [3]: binds
